Laboratory results: PubChem BioAssay AID1259254 (NCATS, 2017)
Here is a random part of about 59,000 deposited reagents. About 1,550 of all reagents (2.6%) were called active. 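G2 share is only a proxy for re-replication; each gene was hit by three separate siRNAs, and active genes were retested.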 The numbers tell different reagents against one gene apart. Further read-outs or replicates are left out here. No sequences are given here. Not stated in the record: the amount of reagent.

Aim: 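Genome-wide screen for genes that prevent DNA re-replication in cancer cells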 (primary screen)
System: human HCT116 colorectal cancer cells
Reagent: single siRNA against human genes
Time to read-out: 3 days
Measured: 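Imaged Hoechst DNA stain sorts each cell into a cycle phase by DNA amount; per plate, G2 fraction set to 0% for non-targeting and 100% for GMNN siRNA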
Direction: G2 robust z-score: higher = more G2 cells, more excess DNA replication
Call rule: 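An siRNA counts as active if its G2 robust z-score lies at least 5 MADs above the screen median; here such calls match roughly 38% of GMNN control or more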

gene | siRNA no. | G2 robust z-score | Outcome
HROB (GeneID 78995) | 1 | -0.321 | inactive
HROB (GeneID 78995) | 2 | -0.224 | inactive
HROB (GeneID 78995) | 3 | 2.34 | inactive
SPATA6 (GeneID 54558) | 1 | -0.916 | inactive
SPATA6 (GeneID 54558) | 2 | -0.161 | inactive
SPATA6 (GeneID 54558) | 3 | -0.708 | inactive
TLN2-AS2 (GeneID 197003) | 1 | -0.0791 | inactive
TLN2-AS2 (GeneID 197003) | 2 | 1.68 | inactive
TLN2-AS2 (GeneID 197003) | 3 | -0.23 | inactive
DTD1 (GeneID 92675) | 1 | 0.159 | inactive
DTD1 (GeneID 92675) | 2 | -0.384 | inactive
DTD1 (GeneID 92675) | 3 | -1.18 | inactive
ALS2 (GeneID 57679) | 1 | -1.09 | inactive
ALS2 (GeneID 57679) | 2 | -0.462 | inactive
ALS2 (GeneID 57679) | 3 | -0.32 | inactive
SMARCA5 (GeneID 8467) | 1 | -0.213 | inactive
SMARCA5 (GeneID 8467) | 2 | -0.382 | inactive
SMARCA5 (GeneID 8467) | 3 | -0.637 | inactive
ZNF519 (GeneID 162655) | 1 | -0.598 | inactive
ZNF519 (GeneID 162655) | 2 | 1.78 | inactive
ZNF519 (GeneID 162655) | 3 | 2.71 | inactive
RHBDL2 (GeneID 54933) | 1 | 0.63 | inactive
RHBDL2 (GeneID 54933) | 2 | 2.03 | inactive
RHBDL2 (GeneID 54933) | 3 | 0.179 | inactive
CCDC172 (GeneID 374355) | 1 | 0.216 | inactive
CCDC172 (GeneID 374355) | 2 | 0.378 | inactive
CCDC172 (GeneID 374355) | 3 | -0.471 | inactive
RAB26 (GeneID 25837) | 1 | 6.58 | active
RAB26 (GeneID 25837) | 2 | 0.229 | inactive
RAB26 (GeneID 25837) | 3 | 2.34 | inactive
TRAF6 (GeneID 7189) | 1 | 1.51 | inactive
TRAF6 (GeneID 7189) | 2 | -0.235 | inactive
TRAF6 (GeneID 7189) | 3 | 1.95 | inactive
EVI2A (GeneID 2123) | 1 | -0.528 | inactive
EVI2A (GeneID 2123) | 2 | 2.25 | inactive
EVI2A (GeneID 2123) | 3 | 1.03 | inactive
TRIO (GeneID 7204) | 1 | -0.493 | inactive
TRIO (GeneID 7204) | 2 | -0.363 | inactive
TRIO (GeneID 7204) | 3 | -0.447 | inactive
NPHP3 (GeneID 27031) | 1 | -0.942 | inactive
NPHP3 (GeneID 27031) | 2 | -0.345 | inactive
NPHP3 (GeneID 27031) | 3 | -0.0896 | inactive
MAPKAPK2 (GeneID 9261) | 1 | 1.57 | inactive
MAPKAPK2 (GeneID 9261) | 2 | 0.166 | inactive
MAPKAPK2 (GeneID 9261) | 3 | -0.187 | inactive
UTP23 (GeneID 84294) | 1 | 1.38 | inactive
UTP23 (GeneID 84294) | 2 | -0.0519 | inactive
UTP23 (GeneID 84294) | 3 | -0.925 | inactive

Entries listed so far whose target name begins with Z or z:
gene | siRNA no. | G2 robust z-score | Outcome
ZNF519 (GeneID 162655) | 1 | -0.598 | inactive
ZNF519 (GeneID 162655) | 2 | 1.78 | inactive
ZNF519 (GeneID 162655) | 3 | 2.71 | inactive
